Data as given in PubChem BioAssay AID652272 (Drosophila RNAi Screening Center, 2013).

Aim: 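Genes whose knock-down decreases or increases Hedgehog reporter output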 (primary screen)
Cells: Drosophila clone 8 (Cl8) cells
Knock-down reagent: long dsRNA against Drosophila genes
Read-out: 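Plate reader light from a firefly reporter under a ptc promoter fragment that responds to Hedgehog, with Renilla light as transfection reference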
Reading the numbers: firefly Hh reporter signal: higher = more ptc reporter light; Renilla reference signal: higher = more Renilla control light
Rule for the call: 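Hit when the z-score averaged over two replicates is under -2 or over +3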
Calls: active = hit: reporter lowered or raised; inactive = not a hit
In all, the deposit lists about 21,000 reagents; below is a random part of those with a known target gene and a result. In the full data, 503 (2.4%) were called active. 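Raw plate light values, not normalised; calls rest on replicate z-scores that were not deposited; hits include reporter decreases as well as increases.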 A number with no mark means an inactive call. Names joined by + are all predicted targets of the reagent. The record does not give: the amount of reagent, the time to read-out.

gene,amplicon,"firefly Hh reporter signal, replicate 1","firefly Hh reporter signal, replicate 2","firefly Hh reporter signal, replicate 3","Renilla reference signal, replicate 1","Renilla reference signal, replicate 2"
CG14949,DRSC08408,76389,57060,,2564,4256
CG15252,DRSC17981,59773,1.43e5,,1797,5403
kairos,DRSC19972,1.17e5,83415,,2549,2154
Tet (Ten-Eleven Translocation (TET) family protein),DRSC08006,1.61e5,3.65e5,,4141,12336
Tet (Ten-Eleven Translocation (TET) family protein),DRSC08550,2.03e5,96468,,6435,2201
Tet (Ten-Eleven Translocation (TET) family protein),DRSC08646,77645,33066,,2000,2250
CG6282,DRSC10616,1.53e5,1.02e5,,6594,3987
Atg18b (Autophagy-related 18b),DRSC03108,1.01e5,62732,,4067,2433
Scgalpha (Sarcoglycan alpha),DRSC03076,1.09e5,54172,,2888,5171
Uch-L5R (Uch-L5-related),DRSC19825,68696,1.88e5,,2043,6780
unc-5,DRSC05545,4.65e5,2.50e5,52486,2805,6093
unc-5,DRSC07711,89344,92704,,2630,6120
unc-5,DRSC07712,81584,76580,,2187,4448
Sec22 + CG13358,DRSC18538,91056,91558,,2034,3004
Ir85a (Ionotropic receptor 85a),DRSC14382,1.22e5,1.66e5,,5147,4752
CG18538,DRSC06765,1.02e5,57895,,2722,4517
CG10384,DRSC03933,1.15e5,3.38e5,,3168,15509
CG10384,DRSC04067,63210,45702,,876,4486
Lipt1 + CG42837,DRSC07183,1.11e5,76281,,4777,3499
CG14543,DRSC14887,3.69e5,68928,,21403,2371
CG14864,DRSC14987,68288,93698,,2224,2432
Fib (Fibrillarin),DRSC04614,67937,57193,,1675,6557
CG31041,DRSC13951,48359,2.54e5,,13181,6067
CG31465,DRSC16090,1.56e5,81907,,6082,3544
CG11034,DRSC02121,1.08e5,60640,,3013,5747
CG11034,DRSC02122,85466,44356,,2601,4288
CG31223,DRSC15115,1.11e5,47562,,4704,1830
Rsph9 (Radial spoke head protein 9),DRSC01594,1.76e5,2.69e5,,9089,13027
Myo95E (Myosin 95E),DRSC15821,1.28e5,53392,,4891,2443
fz4 (frizzled 4),DRSC18780,87490,2.97e5,,3184,12161
crq (croquemort),DRSC00810,1.04e5,1.17e5,,2401,2691
Opa1 (Optic atrophy 1),DRSC07191,1.17e5,90051,,5347,4144
Hsp70Bb + Hsp70Bbb,DRSC15885,1.23e5,1.75e5,,3766,4387
CG6142,DRSC15976,5.67e5,1.37e5,,27964,4068
CG4553,DRSC15595,7.02e5,90555,,35673,546
CG5056,DRSC02808,1.10e5,65351,,3626,5974
CG3288,DRSC11745,1.27e5,1.34e5,,4659,3904
OtopLb (Otopetrin-like b),DRSC00594,70448,61308,,3472,2883
CG12730,DRSC17885,94807,2.52e5,,3360,10070
CG8778,DRSC07264,62544,64444,,1705,4499
CG13488,DRSC04133,74530,63920,,1286,5248
Ppi1 (Protein phosphatase 1c interacting protein 1),DRSC15421,73015,48519,,1625,1632
Rb97D (Ribonuclear protein at 97D),DRSC16815,77430,93715,,3062,2748
fz (frizzled),DRSC11348,71792,,,3456,2076
CG43327 + CG43328,DRSC05640,87915,1.92e5,,2614,7984
odd (odd skipped),DRSC00832,58187,8946,,1744,1506
Tsp42A (Tetraspanin 42A),DRSC04862,94112,76429,,1780,5769
CG9259,DRSC03174,79616,58065,,1776,5157
Ccn,DRSC09504,2.91e5,,,6704,
Ccn,DRSC09506,1.28e5,,,5376,
Ccn,DRSC10062,1.15e5,76240,,5261,3360
Ccn,DRSC10063,75703,,,5965,2541
Agpat1 (1-Acylglycerol-3-phosphate O-acyltransferase 1),DRSC19879,1.06e5,2.44e5,,4103,10368
Agpat1 (1-Acylglycerol-3-phosphate O-acyltransferase 1),DRSC19880,1.11e5,2.89e5,,4045,11549
"Arpc2 (Actin-related protein 2/3 complex, subunit 2)",DRSC02113,1.19e5,96347,,4970,3370
eIF3k (eukaryotic translation initiation factor 3 subunit k),DRSC04056,1.40e5 (active),1.10e5,,3716,3005
CG1894,DRSC15396,86659,1.01e5,,3072,3844

Entries listed so far called active:
gene,amplicon,"firefly Hh reporter signal, replicate 1","firefly Hh reporter signal, replicate 2","firefly Hh reporter signal, replicate 3","Renilla reference signal, replicate 1","Renilla reference signal, replicate 2"
eIF3k (eukaryotic translation initiation factor 3 subunit k),DRSC04056,1.40e5 (active),1.10e5,,3716,3005
